The other results are listed elsewhere or left out.
Tests used:
Test in all cases: log2 fold change, soluble protein after heating vs DMSO (PISA); higher = thermal stabilisation; K562 cells, 10 uM, 30 min; active = over 0.2 and 3.5 SD of the protein, either way, in both replicates (recomputed)
[1] = compound: COC1=CC=C(C=C1)CN2C=CC3=C2C=C(C=C3)C(=O)NO
Method in brief: (§1)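 Quantification of soluble protein used TMTpro 16plex LC-MS/MS, with channel sums equalised. Samples were the supernatant after 21,000xg for 90 min of pooled aliquots from K562 cells (2×10^6 cells/mL) treated with 10 μM compound for 30 min, heated for 3 min over 48°C-58°C, and extracted in PBS with 0.5% NP-40 at 4°C. Values, from duplicates, describe thermal stability against control samples on a log2 fold-change scale.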

By UniProt entry, the sequences of proteins in these tests, tags left out. Where a name states a change or a piece, a line headed by the entry shows the natural chain unless it says otherwise.
UniProt P62633: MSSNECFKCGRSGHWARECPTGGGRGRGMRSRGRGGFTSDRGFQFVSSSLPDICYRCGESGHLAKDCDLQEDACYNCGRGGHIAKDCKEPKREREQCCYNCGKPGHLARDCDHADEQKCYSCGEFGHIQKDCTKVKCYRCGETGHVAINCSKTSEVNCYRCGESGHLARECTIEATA
UniProt Q8N5K1: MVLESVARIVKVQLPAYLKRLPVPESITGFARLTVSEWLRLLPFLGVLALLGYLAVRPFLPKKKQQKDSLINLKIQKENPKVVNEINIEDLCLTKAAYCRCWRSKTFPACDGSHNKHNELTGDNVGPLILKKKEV
UniProt Q6FI81: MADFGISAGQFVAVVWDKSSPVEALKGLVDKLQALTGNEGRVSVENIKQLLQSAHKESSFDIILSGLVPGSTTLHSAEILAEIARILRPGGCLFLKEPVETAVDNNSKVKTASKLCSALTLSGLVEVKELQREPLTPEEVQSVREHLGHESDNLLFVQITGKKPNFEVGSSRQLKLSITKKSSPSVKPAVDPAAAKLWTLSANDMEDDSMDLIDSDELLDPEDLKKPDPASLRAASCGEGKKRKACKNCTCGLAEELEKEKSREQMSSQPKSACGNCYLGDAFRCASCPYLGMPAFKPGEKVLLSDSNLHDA
UniProt Q8WUH1: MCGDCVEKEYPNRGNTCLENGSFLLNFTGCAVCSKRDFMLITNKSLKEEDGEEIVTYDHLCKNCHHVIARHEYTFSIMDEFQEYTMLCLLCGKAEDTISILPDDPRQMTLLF
UniProt Q9NRP2: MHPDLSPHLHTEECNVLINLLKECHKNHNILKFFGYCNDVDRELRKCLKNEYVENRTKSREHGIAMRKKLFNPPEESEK
UniProt Q9H9A5, whole entry, looked up: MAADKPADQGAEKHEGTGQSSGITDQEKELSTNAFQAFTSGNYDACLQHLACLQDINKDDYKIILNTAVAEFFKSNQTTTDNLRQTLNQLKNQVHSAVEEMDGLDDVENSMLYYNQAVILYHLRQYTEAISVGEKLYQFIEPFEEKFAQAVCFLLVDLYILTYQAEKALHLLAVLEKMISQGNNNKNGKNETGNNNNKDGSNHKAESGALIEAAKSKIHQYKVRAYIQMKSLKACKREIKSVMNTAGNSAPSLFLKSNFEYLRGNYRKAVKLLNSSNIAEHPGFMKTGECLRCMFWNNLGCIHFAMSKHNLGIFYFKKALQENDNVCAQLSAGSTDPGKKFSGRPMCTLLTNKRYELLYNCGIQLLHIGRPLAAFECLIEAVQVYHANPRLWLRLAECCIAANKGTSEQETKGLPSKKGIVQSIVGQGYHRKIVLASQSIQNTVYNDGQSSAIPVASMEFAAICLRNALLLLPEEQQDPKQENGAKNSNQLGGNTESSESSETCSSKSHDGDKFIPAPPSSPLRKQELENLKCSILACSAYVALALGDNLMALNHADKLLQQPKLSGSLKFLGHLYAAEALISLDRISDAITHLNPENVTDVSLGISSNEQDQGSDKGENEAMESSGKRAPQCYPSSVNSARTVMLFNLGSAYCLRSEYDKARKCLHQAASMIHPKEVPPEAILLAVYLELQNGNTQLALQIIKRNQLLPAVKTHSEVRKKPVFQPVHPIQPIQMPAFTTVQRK
UniProt Q8NFW8: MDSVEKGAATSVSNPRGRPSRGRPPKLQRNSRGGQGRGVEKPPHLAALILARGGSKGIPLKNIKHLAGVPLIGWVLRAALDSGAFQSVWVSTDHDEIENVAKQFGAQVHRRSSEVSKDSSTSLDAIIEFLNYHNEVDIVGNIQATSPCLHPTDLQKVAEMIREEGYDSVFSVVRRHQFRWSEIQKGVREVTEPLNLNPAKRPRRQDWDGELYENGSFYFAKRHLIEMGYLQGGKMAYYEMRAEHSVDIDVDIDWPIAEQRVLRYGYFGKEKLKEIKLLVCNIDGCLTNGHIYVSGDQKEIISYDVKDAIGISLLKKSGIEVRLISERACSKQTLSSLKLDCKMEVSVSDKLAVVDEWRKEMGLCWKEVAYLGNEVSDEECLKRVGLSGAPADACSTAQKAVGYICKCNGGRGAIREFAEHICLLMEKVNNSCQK
UniProt Q8WUX9: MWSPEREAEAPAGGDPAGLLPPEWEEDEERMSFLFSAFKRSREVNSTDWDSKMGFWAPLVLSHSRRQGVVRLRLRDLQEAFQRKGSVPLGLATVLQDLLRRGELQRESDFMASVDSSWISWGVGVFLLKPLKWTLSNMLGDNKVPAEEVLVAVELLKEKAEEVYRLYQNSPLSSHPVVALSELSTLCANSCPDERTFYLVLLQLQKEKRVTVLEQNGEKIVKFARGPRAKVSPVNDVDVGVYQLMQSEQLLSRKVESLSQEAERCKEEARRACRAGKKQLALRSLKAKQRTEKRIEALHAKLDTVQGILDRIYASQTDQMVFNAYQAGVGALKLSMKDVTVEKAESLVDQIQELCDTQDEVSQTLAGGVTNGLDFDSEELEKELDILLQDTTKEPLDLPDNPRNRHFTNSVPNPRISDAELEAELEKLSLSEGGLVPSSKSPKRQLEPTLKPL
UniProt Q8NE01: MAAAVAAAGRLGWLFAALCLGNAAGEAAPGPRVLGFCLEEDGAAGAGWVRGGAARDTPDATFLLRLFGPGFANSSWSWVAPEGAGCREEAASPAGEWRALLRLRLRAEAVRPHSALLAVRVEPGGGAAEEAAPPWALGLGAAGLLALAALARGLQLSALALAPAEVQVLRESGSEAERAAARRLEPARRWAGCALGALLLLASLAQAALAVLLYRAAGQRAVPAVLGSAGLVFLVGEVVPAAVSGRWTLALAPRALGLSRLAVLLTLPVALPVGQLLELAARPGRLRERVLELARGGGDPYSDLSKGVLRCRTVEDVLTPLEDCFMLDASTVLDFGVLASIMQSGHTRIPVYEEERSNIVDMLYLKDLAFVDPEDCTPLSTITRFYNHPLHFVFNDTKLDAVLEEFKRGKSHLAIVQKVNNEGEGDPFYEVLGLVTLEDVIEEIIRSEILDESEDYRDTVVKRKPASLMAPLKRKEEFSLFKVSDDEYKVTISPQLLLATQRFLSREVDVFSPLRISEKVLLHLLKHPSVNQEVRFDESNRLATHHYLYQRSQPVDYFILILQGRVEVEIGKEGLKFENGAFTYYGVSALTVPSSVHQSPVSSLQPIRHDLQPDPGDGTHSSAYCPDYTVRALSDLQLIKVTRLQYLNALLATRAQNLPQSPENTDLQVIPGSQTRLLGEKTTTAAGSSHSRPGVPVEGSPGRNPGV
UniProt Q9UHD1: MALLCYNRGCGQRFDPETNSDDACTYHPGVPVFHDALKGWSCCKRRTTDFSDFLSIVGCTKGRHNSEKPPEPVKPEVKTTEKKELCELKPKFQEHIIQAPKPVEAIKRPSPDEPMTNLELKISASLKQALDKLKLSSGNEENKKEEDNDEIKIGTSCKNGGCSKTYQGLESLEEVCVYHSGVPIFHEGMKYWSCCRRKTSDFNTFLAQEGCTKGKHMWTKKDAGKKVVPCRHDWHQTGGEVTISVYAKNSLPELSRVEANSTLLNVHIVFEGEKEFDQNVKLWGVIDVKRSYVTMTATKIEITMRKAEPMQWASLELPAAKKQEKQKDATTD
UniProt Q92600, whole entry, looked up: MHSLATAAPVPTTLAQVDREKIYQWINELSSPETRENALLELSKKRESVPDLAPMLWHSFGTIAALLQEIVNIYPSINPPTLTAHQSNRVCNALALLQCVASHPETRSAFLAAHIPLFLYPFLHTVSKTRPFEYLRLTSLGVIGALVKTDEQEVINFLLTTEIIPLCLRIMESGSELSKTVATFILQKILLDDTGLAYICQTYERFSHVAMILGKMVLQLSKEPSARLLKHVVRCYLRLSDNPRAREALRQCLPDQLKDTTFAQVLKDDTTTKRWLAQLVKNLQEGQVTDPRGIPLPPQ
UniProt P09543: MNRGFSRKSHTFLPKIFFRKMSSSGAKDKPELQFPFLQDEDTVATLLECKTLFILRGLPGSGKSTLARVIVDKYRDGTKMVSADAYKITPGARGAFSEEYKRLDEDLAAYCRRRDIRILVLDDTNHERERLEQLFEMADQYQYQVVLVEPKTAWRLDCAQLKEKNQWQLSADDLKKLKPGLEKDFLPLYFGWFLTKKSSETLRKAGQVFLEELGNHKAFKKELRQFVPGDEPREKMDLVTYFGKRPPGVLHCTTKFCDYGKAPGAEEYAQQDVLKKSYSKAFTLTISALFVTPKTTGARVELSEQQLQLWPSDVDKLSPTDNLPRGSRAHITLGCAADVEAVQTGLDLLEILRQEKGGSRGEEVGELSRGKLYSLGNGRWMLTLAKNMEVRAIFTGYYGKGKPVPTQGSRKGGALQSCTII
UniProt Q9NRG0: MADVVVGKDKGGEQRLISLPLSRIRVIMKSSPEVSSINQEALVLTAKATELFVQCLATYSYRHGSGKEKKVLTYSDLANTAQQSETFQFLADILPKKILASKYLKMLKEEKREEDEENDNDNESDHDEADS
UniProt Q6P4Q7: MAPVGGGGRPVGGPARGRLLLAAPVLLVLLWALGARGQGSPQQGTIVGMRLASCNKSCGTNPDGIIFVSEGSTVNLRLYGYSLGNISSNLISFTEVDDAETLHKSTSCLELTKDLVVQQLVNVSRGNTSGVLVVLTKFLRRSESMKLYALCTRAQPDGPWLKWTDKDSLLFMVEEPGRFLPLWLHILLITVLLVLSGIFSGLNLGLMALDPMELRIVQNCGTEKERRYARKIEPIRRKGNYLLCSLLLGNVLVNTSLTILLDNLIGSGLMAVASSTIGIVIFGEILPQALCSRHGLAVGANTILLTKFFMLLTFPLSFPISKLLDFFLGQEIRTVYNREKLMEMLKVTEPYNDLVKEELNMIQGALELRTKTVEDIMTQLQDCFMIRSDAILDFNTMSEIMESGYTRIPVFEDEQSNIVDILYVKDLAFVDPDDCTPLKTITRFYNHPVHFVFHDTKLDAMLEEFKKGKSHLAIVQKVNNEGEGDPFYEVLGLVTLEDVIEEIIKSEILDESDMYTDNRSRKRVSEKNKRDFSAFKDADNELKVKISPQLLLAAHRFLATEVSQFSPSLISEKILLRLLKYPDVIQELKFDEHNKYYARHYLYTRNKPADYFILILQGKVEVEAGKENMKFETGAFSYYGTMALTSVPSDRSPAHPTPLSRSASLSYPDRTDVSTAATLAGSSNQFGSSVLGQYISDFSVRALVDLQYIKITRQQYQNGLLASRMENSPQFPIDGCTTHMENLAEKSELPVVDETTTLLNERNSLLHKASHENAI
UniProt P0C7P0: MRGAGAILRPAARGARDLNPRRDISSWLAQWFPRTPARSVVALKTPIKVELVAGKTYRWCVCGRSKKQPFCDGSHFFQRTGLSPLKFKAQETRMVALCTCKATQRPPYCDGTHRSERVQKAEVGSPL

filanesib = compound: CON(C)C(=O)N1N=C(c2cc(F)ccc2F)S[C@@]1(CCCN)c1ccccc1 [filanesib]
Method in brief: as §1

zotarolimus = compound: CO[C@H]1C[C@@H]2CC[C@@H](C)[C@@](O)(O2)C(=O)C(=O)N2CCCC[C@H]2C(=O)O[C@H]([C@H](C)C[C@@H]2CC[C@H](n3cnnn3)[C@H](OC)C2)CC(=O)[C@H](C)/C=C(\C)[C@@H](O)[C@@H](OC)C(=O)[C@H](C)C[C@H](C)/C=C/C=C/C=C/1C [zotarolimus]
Method in brief: as §1

idasanutlin = compound: COc1cc(C(=O)O)ccc1NC(=O)[C@@H]1N[C@@H](CC(C)(C)C)[C@](C#N)(c2ccc(Cl)cc2F)[C@H]1c1cccc(Cl)c1F [idasanutlin]
Method in brief: as §1

alisertib = compound: COc1cc(Nc2ncc3c(n2)-c2ccc(Cl)cc2C(c2c(F)cccc2OC)=NC3)ccc1C(=O)O [alisertib]
Method in brief: as §1

[2] = compound: COc1cc2nc(-c3cc(F)ccc3O)nc(N[C@@H]3CNC[C@H]3C(C)(C)O)c2cc1OC
Method in brief: as §1

gefitinib = compound: COc1cc2ncnc(Nc3ccc(F)c(Cl)c3)c2cc1OCCCN1CCOCC1 [gefitinib]
Method in brief: as §1

[3] = compound: COc1cccc2cc(-c3nc([C@H]4CC[C@H](C(=O)O)CC4)n4ncnc(N)c34)[nH]c12
Method in brief: as §1

lapatinib = compound: CS(=O)(=O)CCNCc1ccc(-c2ccc3ncnc(Nc4ccc(OCc5cccc(F)c5)c(Cl)c4)c3c2)o1 [lapatinib]
Method in brief: as §1

pictilisib = compound: CS(=O)(=O)N1CCN(Cc2cc3nc(-c4cccc5[nH]ncc45)nc(N4CCOCC4)c3s2)CC1 [pictilisib]
Method in brief: as §1

[4] = compound: CS(=O)(=O)c1ccc(-c2cnc(N)c(C(=O)Nc3ccccc3)n2)cc1
Method in brief: as §1

crizotinib = compound: C[C@@H](Oc1cc(-c2cnn(C3CCNCC3)c2)cnc1N)c1c(Cl)ccc(F)c1Cl [crizotinib]
Method in brief: as §1

[5] = compound: C[C@@H]1COCCN1C2=NC(=NC(=C2)C3(CC3)S(=O)(=O)C)C4=C5C=CNC5=CC=C4
Method in brief: as §1

[6] = compound: C[C@H](C1=CC=C(C=C1)C(=O)NC2=C3C=CNC3=NC=C2)N
Method in brief: as §1

duvelisib = compound: C[C@H](Nc1ncnc2nc[nH]c12)c1cc2cccc(Cl)c2c(=O)n1-c1ccccc1 [duvelisib]
Method in brief: as §1

gandotinib = compound: Cc1cc(Nc2cc(CN3CCOCC3)c3nc(C)c(Cc4ccc(Cl)cc4F)n3n2)n[nH]1 [gandotinib]
Method in brief: as §1

tozasertib = compound: Cc1cc(Nc2cc(N3CCN(C)CC3)nc(Sc3ccc(NC(=O)C4CC4)cc3)n2)n[nH]1 [tozasertib]
Method in brief: as §1

[7] = compound: Cc1cc(SCc2sc(-c3ccc(C(F)(F)F)cc3)nc2C)ccc1OCC(=O)O
Method in brief: as §1

doramapimod = compound: Cc1ccc(-n2nc(C(C)(C)C)cc2NC(=O)Nc2ccc(OCCN3CCOCC3)c3ccccc23)cc1 [doramapimod]
Method in brief: as §1

ispinesib = compound: Cc1ccc(C(=O)N(CCCN)[C@@H](c2nc3cc(Cl)ccc3c(=O)n2Cc2ccccc2)C(C)C)cc1 [ispinesib]
Method in brief: as §1

Measured: log2 fold change

CNBP isoform 6 (UniProt P62633)
inactive: [1] -0.019 | filanesib 0.089 | zotarolimus -0.001 | idasanutlin 0.013 | alisertib -0.086 | [2] -0.064 | gefitinib -0.011 | [3] -0.036 | lapatinib 0.011 | pictilisib -0.012 | [4] -0.008 | crizotinib 0.008 | [5] -0.119 | [6] -0.018 | duvelisib -0.049 | gandotinib 0.109 | tozasertib 0 | [7] -0.08 | doramapimod -0.018 | ispinesib -0.004

CISD2 (UniProt Q8N5K1)
inactive: [1] -0.008 | filanesib -0.055 | zotarolimus -0.026 | idasanutlin -0.025 | alisertib -0.067 | [2] 0.029 | gefitinib 0.014 | [3] 0.013 | lapatinib -0.002 | pictilisib -0.017 | [4] -0.008 | crizotinib 0.065 | [5] -0.001 | [6] -0.079 | duvelisib 0.012 | gandotinib 0.031 | tozasertib -0.007 | [7] -0.031 | doramapimod -0.039 | ispinesib 0.066

CIAPIN1 (UniProt Q6FI81)
inactive: [1] 0.037 | filanesib -0.043 | zotarolimus 0.051 | idasanutlin -0.064 | alisertib -0.019 | [2] 0.036 | gefitinib 0 | [3] -0.014 | lapatinib -0.026 | pictilisib 0.008 | [4] -0.021 | crizotinib 0.056 | [5] 0.064 | [6] -0.104 | duvelisib 0.029 | gandotinib -0.118 | tozasertib 0.044 | [7] 0.009 | doramapimod -0.047 | ispinesib 0.053

CHURC1 isoform 2 (UniProt Q8WUH1)
inactive: [1] 0.187 | filanesib -0.101 | zotarolimus 0.025 | idasanutlin -0.036 | alisertib -0.097 | [2] 0.076 | gefitinib -0.022 | [3] 0.028 | lapatinib 0.021 | pictilisib 0.054 | [4] -0.041 | crizotinib 0.108 | [5] -0.029 | [6] -0.055 | duvelisib -0.003 | gandotinib 0.065 | tozasertib 0.028 | [7] 0.014 | doramapimod -0.201 | ispinesib -0.077

CMC2 (UniProt Q9NRP2)
inactive: [1] 0.205 | filanesib -0.029 | zotarolimus -0.025 | idasanutlin -0.015 | alisertib -0.004 | [2] -0.009 | gefitinib -0.009 | [3] 0.033 | lapatinib -0.032 | pictilisib -0.05 | [4] -0.035 | crizotinib -0.012 | [5] 0.071 | [6] -0.035 | duvelisib 0.048 | gandotinib -0.028 | tozasertib 0.05 | [7] -0.113 | doramapimod -0.05 | ispinesib 0.066

CNOT10 isoform 6 (UniProt Q9H9A5)
inactive: [1] -0.009 | filanesib 0.031 | zotarolimus -0.083 | idasanutlin -0.054 | alisertib 0.014 | [2] -0.015 | gefitinib -0.001 | [3] -0.01 | lapatinib 0.043 | pictilisib -0.116 | [4] 0.007 | crizotinib -0.116 | [5] -0.061 | [6] 0.019 | duvelisib -0.078 | gandotinib 0.028 | tozasertib 0.015 | [7] 0.064 | doramapimod 0.047 | ispinesib -0.052

CMAS (UniProt Q8NFW8)
inactive: [1] -0.075 | filanesib 0.248 | zotarolimus 0.004 | idasanutlin 0.06 | alisertib 0 | [2] 0.037 | gefitinib -0.046 | [3] -0.037 | lapatinib 0.056 | pictilisib -0.029 | [4] -0.046 | crizotinib -0.041 | [5] -0.173 | [6] 0.252 | duvelisib -0.027 | gandotinib 0.045 | tozasertib -0.014 | [7] 0.029 | doramapimod 0.072 | ispinesib -0.178

CHMP7 (UniProt Q8WUX9)
inactive: [1] -0.112 | filanesib 0.008 | zotarolimus -0.118 | idasanutlin -0.033 | alisertib -0.082 | [2] -0.358 | gefitinib 0.213 | [3] 0.084 | lapatinib 0.024 | pictilisib -0.008 | [4] 0.038 | crizotinib -0.259 | [5] 0.042 | [6] 0.044 | duvelisib 0.036 | gandotinib -0.046 | tozasertib 0.13 | [7] 0.22 | doramapimod -0.038 | ispinesib -0.193

CNNM3 (UniProt Q8NE01)
inactive: [1] 0.04 | filanesib 0.094 | zotarolimus -0.019 | idasanutlin -0.03 | alisertib -0.174 | [2] -0.005 | gefitinib 0.023 | [3] 0.066 | lapatinib 0.116 | pictilisib -0.041 | [4] 0.153 | crizotinib 0.061 | [5] 0.047 | [6] -0.069 | duvelisib 0.047 | gandotinib -0.046 | tozasertib -0.001 | [7] 0.019 | doramapimod 0.01 | ispinesib 0.045

CHORDC1 (UniProt Q9UHD1)
inactive: [1] 0.032 | filanesib -0.104 | zotarolimus 0.003 | idasanutlin -0.077 | alisertib -0.047 | [2] 0 | gefitinib -0.022 | [3] 0.015 | lapatinib -0.004 | pictilisib 0.029 | [4] 0.037 | crizotinib -0.02 | [5] 0.063 | [6] -0.062 | duvelisib 0.01 | gandotinib -0.041 | tozasertib -0.009 | [7] 0.01 | doramapimod -0.02 | ispinesib 0.099

CNOT9 isoform 2 (UniProt Q92600)
inactive: [1] 0.097 | filanesib 0.095 | zotarolimus 0.018 | idasanutlin -0.062 | alisertib -0.048 | [2] 0.011 | gefitinib 0.002 | [3] -0.011 | lapatinib 0.016 | pictilisib 0.002 | [4] 0 | crizotinib 0.02 | [5] 0.01 | [6] 0.009 | duvelisib 0.009 | gandotinib -0.013 | tozasertib 0.051 | [7] 0.115 | doramapimod -0.029 | ispinesib -0.029

CNP (UniProt P09543)
inactive: [1] -0.036 | filanesib 0.02 | zotarolimus 0.026 | idasanutlin -0.056 | alisertib -0.023 | [2] 0.125 | gefitinib 0.024 | [3] 0.025 | lapatinib -0.032 | pictilisib 0.061 | [4] 0.024 | crizotinib 0.01 | [5] 0.058 | [6] -0.038 | duvelisib 0.105 | gandotinib 0.028 | tozasertib -0.037 | [7] 0.03 | doramapimod -0.041 | ispinesib 0.038

CHRAC1 (UniProt Q9NRG0)
inactive: [1] 0.197 | filanesib -0.069 | zotarolimus -0.002 | idasanutlin -0.122 | alisertib -0.155 | [2] -0.037 | gefitinib 0.053 | [3] -0.024 | lapatinib 0.138 | pictilisib -0.11 | [4] -0.061 | crizotinib -0.097 | [5] 0.042 | [6] -0.04 | duvelisib 0.074 | gandotinib -0.084 | tozasertib -0.003 | [7] -0.008 | doramapimod 0.016 | ispinesib 0.176

2 records drawn at random from the list so far:
CHORDC1 (UniProt Q9UHD1)
inactive: [1] 0.032 | filanesib -0.104 | zotarolimus 0.003 | idasanutlin -0.077 | alisertib -0.047 | [2] 0 | gefitinib -0.022 | [3] 0.015 | lapatinib -0.004 | pictilisib 0.029 | [4] 0.037 | crizotinib -0.02 | [5] 0.063 | [6] -0.062 | duvelisib 0.01 | gandotinib -0.041 | tozasertib -0.009 | [7] 0.01 | doramapimod -0.02 | ispinesib 0.099

CNOT9 isoform 2 (UniProt Q92600)
inactive: [1] 0.097 | filanesib 0.095 | zotarolimus 0.018 | idasanutlin -0.062 | alisertib -0.048 | [2] 0.011 | gefitinib 0.002 | [3] -0.011 | lapatinib 0.016 | pictilisib 0.002 | [4] 0 | crizotinib 0.02 | [5] 0.01 | [6] 0.009 | duvelisib 0.009 | gandotinib -0.013 | tozasertib 0.051 | [7] 0.115 | doramapimod -0.029 | ispinesib -0.029

Additional results follow.

CNNM4 (UniProt Q6P4Q7)
inactive: [1] -0.065 | filanesib -0.001 | zotarolimus 0.031 | idasanutlin 0.06 | alisertib -0.076 | [2] 0.231 | gefitinib -0.112 | [3] 0.118 | lapatinib 0.005 | pictilisib 0.005 | [4] 0.026 | crizotinib -0.066 | [5] 0.05 | [6] 0.028 | duvelisib 0.049 | gandotinib -0.032 | tozasertib -0.028 | [7] 0.314 | doramapimod -0.039 | ispinesib 0.196

CKMT1A (UniProt P12532)
inactive: [1] -0.028 | filanesib 0.024 | zotarolimus -0.036 | idasanutlin -0.005 | alisertib -0.021 | [2] 0.045 | gefitinib 0.009 | [3] -0.051 | lapatinib -0.027 | pictilisib 0.064 | [4] 0.019 | crizotinib 0.05 | [5] -0.035 | [6] 0.002 | duvelisib 0.016 | gandotinib 0.014 | tozasertib 0.014 | [7] -0.002 | doramapimod -0.018 | ispinesib 0.032

CISD3 (UniProt P0C7P0)
inactive: [1] -0.063 | filanesib -0.166 | zotarolimus 0.145 | idasanutlin 0.074 | alisertib 0.098 | [2] -0.018 | gefitinib 0.078 | [3] 0.102 | lapatinib 0.005 | pictilisib 0.147 | [4] -0.075 | crizotinib 0.065 | [5] 0.024 | [6] -0.273 | duvelisib -0.227 | gandotinib 0.056 | tozasertib -0.032 | [7] 0.055 | doramapimod 0.017 | ispinesib -0.198

— the supplement of paper PMC10849652
